Results are given in words; binding and its absence hold for the method and conditions named. In cells and extracts the contact can be indirect. Here binding means that the protein was enriched with, or labelled near, the bait; the list need not be complete. Sequences can lack the tags named with a protein.
T1: myc-tagged full length GSDMB (Gasdermin B) (human) (UniProt Q8TAX9)
T1 sequence: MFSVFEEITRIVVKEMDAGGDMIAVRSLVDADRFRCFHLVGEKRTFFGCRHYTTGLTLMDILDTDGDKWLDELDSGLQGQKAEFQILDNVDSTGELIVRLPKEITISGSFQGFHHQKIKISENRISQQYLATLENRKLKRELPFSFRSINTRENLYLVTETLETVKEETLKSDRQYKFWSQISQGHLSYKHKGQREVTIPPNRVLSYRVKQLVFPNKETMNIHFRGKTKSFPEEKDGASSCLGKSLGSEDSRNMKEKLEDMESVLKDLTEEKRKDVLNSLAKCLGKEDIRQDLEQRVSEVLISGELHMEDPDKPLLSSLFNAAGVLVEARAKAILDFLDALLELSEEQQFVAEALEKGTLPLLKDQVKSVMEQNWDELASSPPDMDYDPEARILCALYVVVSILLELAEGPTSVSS

Amino acid sequences for entries named in this document (tags omitted).
UniProt P51148: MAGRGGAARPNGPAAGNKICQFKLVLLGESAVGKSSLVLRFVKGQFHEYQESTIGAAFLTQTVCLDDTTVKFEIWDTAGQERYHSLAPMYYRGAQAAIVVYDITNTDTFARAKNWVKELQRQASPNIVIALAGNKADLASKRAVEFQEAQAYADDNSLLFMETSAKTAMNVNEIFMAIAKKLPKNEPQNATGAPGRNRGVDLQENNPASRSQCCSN
UniProt P51149: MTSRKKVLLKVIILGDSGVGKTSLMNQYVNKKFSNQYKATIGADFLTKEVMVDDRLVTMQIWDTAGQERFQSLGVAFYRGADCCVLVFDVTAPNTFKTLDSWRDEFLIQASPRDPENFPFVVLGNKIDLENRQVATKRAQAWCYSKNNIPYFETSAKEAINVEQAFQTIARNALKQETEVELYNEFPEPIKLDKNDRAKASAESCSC

B1: Rab9A (protein, UniProt P51151 1-201)
chain: MAGKSSLFKVILLGDGGVGKSSLMNRYVTNKFDTQLFHTIGVEFLNKDLEVDGHFVTMQIWDTAGQERFRSLRTPFYRGSDCCLLTFSVDDSQSFQNLSNWKKEFIYYADVKEPESFPFVILGNKIDISERQVSTEEAQAWCRDNGDYPYFETSAKDATNVAAAFEEAVRRVLATEDRSDHLIQTDTVNLHRKPKPSSSCC
B2: Rab15 (protein, UniProt P59190 1-212)
chain: MAKQYDVLFRLLLIGDSGVGKTCLLCRFTDNEFHSSHISTIGVDFKMKTIEVDGIKVRIQIWDTAGQERYQTITKQYYRRAQGIFLVYDISSERSYQHIMKWVSDVDEYAPEGVQKILIGNKADEEQKRQVGREQGQQLAKEYGMDFYETSACTNLNIKESFTRLTELVLQAHRKELEGLRMRASNELALAELEEEEGKPEGPANSSKTCWC

Target: T1, myc-tagged full length GSDMB (Gasdermin B) (human)
Assay: affinity purification with mass spectrometry; HCC1954 GB cells untreated or treated with lapatinib, CQ or both; immunoprecipitated with a Myc-tag antibody, then mass spectrometry

| binding | Molecule |
| --- | --- |
| binds | Rab5C (from UniProt P51148 1-216) |
| binds | Ras-related protein Rab-7 (Rab7a) (from UniProt P51149 1-207) |
| binds | B1 |
| binds | B2 |

From PMC9511784
